Test results as given in paper PMC10541173.
These are yes or no findings as the source states them, for the method shown. A result given as binding can be weak or reduced; the word gives no strength. For some of these results: Where a sequence is shown, tags or fusion partners need not be part of it. For some of these results: In cells and extracts the contact can be indirect.

T1: GST-VCF2 isoform 3 (human) (UniProt Q5XKR9)
T1 sequence: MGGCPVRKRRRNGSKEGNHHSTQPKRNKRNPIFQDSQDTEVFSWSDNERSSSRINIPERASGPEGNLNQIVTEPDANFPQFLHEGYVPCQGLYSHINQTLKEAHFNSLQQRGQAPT

B1: UBXN7, endogenous (protein, UniProt O94888 1-489)
chain: MAAHGGSAASSALKGLIQQFTTITGASESVGKHMLEACNNNLEMAVTMFLDGGGIAEEPSTSSASVSTVRPHTEEEVRAPIPQKQEILVEPEPLFGAPKRRRPARSIFDGFRDFQTETIRQEQELRNGGAIDKKLTTLADLFRPPIDLMHKGSFETAKECGQMQNKWLMINIQNVQDFACQCLNRDVWSNEAVKNIIREHFIFWQVYHDSEEGQRYIQFYKLGDFPYVSILDPRTGQKLVEWHQLDVSSFLDQVTGFLGEHGQLDGLSSSPPKKCARSESLIDASEDSQLEAAIRASLQETHFDSTQTKQDSRSDEESESELFSGSEEFISVCGSDEEEEVENLAKSRKSPHKDLGHRKEENRRPLTEPPVRTDPGTATNHQGLPAVDSEILEMPPEKADGVVEGIDVNGPKAQLMLRYPDGKREQITLPEQAKLLALVKHVQSKGYPNERFELLTNFPRRKLSHLDYDITLQEAGLCPQETVFVQERN

Columns and labels:
[1] = biological target: T1, GST-VCF2 isoform 3 (human); assay: pull-down; 0.76 nmole GST fusion immobilised on 10 µl glutathione sepharose beads; 0.2 nmole (monomer) p97 or 0.5 nmole His6-FAF1 (or other purified p97 cofactors) in TBS, 2 mM DTT, 1% Triton X-100; SDS-PAGE with Coomassie or 2,2,2-trichloroethanol staining, FAF1 immunoblot; both purified
[2] = biological target: FLAG-VCF1 isoform 5 (human); assay: co-IP; anti-FLAG (M2 agarose) immunoprecipitation from lysates of HEK293T cells ectopically expressing FLAG-VCF1/2; lysis buffer 50 mM Tris-HCl pH 7.6, 150 mM NaCl, 2 mM MgCl2, 1% NP40, 10% glycerol, 1 mM DTT; overnight at 4°C; immunoblot of endogenous p97 and cofactors

| Molecule | binding [1] | binding [2] |
| --- | --- | --- |
| p97 N domain (domain or fragment) | binds |  |
| p97 ND1 variant (lacking the D2 ATPase domain) (domain or fragment) | binds |  |
| p97 ΔN variant (lacking the N domain) (domain or fragment) | no binding (tested: 0.2 nmole (monomer) p97) |  |
| B1 |  | binds |
